Data reported in publication PMC6667905.
Results are given in words; binding and its absence hold for the method and conditions named. For part of these data: Binding seen in cells or lysates may run through a third protein. For part of these data: Binding calls can cover weak binding; strength is not graded here. Where a sequence is shown, tags or fusion partners need not be part of it.

Columns and labels:
[1] = molecular target: T1, Dam1 (yeast outer kinetochore/microtubule-associated protein) fused with the N-terminal part of Venus (VN173) (yeast) (UniProt P53267); test: split reporter; BIFC in wild-type yeast cells (BY4743); VC173 on the N-terminus of VirD5 or its truncations, VN173 on the C-terminus of the kinetochore protein; 30°C, induction 1 h in MY medium lacking methionine; confocal microscopy
T1 sequence: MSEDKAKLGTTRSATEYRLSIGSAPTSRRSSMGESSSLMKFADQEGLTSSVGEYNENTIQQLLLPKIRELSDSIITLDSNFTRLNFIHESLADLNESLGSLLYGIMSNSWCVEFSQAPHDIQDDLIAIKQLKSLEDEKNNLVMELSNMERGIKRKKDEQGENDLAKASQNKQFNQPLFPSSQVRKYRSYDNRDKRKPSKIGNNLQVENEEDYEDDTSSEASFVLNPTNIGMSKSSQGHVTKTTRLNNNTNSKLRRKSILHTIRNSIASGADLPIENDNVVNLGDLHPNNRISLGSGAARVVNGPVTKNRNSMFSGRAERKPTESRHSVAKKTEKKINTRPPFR

[2] = molecular target: T2, Ipl1 (yeast Aurora kinase) fused with the N-terminal part of Venus (VN173) (yeast) (UniProt P38991); test: as above
T2 sequence: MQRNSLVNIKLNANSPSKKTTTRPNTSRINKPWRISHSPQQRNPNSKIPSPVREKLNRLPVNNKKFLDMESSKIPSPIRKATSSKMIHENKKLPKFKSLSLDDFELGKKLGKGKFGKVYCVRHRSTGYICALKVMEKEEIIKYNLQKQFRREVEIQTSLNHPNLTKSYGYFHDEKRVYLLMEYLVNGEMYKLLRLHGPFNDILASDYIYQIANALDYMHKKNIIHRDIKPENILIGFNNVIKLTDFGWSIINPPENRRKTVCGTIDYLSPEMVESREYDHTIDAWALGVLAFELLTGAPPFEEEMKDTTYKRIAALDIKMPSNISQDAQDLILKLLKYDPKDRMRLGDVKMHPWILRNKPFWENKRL

[3] = molecular target: GST (empty GST); test: pull-down; GST-tagged proteins immobilized on Glutathione HiCap Matrix; purified His-tagged VirD5 in binding buffer (50 mM NaH2PO4, 150 mM NaCl, pH 7.2, 0.1% Triton X-100), 2 h at room temperature; Western blot with anti-His HRP antibody; both purified

VirD5 from the nopaline strain C58 (BIFC fusion) (from UniProt Q9JN11)
binding [1]: binds | binding [2]: binds

B1: His-tagged VirD5 (protein, UniProt Q9JN11 1-833)
chain: MTGKSKVHIRSSADTLPDGSITAPFSTGLSGDQADASFEAQTDYSQSTSVSFTYDGVKLGPAERAAYENWCEPGRPTWKDLIIKARVDPIDDVIWLRDLEEDTPSTFRYEGMPLGLGERKAYENWQEDAQPTWEDLVVSARMTELGRPHGITGEYTSLAGSKNTSSISLKRKRSNLIDDENSSGSFSYDGMKLGEAERSAYGDWAEAEPPTWKDLVLRARVSSINDSAWLFDSQTSSSSFEYNGVPLGEPERQALRQWQGDAQPTWEDLVVNARMAELCHAGWIEGQKGCFEKRGEALHASERGSQRPIVQRTDSSDSFLYDGRRLGAPERTAYERWSKRERPTWEDLILDAHQARIESDAVTTQAIGQSSSLVFLYEGKSLGCREREAYEKWRQPAQPRWQNLVVNARLAELDPSVWIADERDPLDDGDALGRPSYTSLTDRSDVPLDDQSIYHRSDLVREQVSESSQKQFAACSESETIPVSWFTASGLDANNTENIAASDPVDGTGGVKRLGSKSDRTVTASIHDVNSSTKRLLLNEFGLEAPRPSPEKTVRLRSDNIGTYGSRRNERMRLATETGAYESEHIFGFKAVHDTARATKEGRRLERPMPAYLEYKGLHRQHVGTGRGRTKLVGRGWPDDTSYRSDQRATLSDPVARSEGATASNGYQLNQLGYAHQLASDGLQSESPDGVALPIQVATTSYNYTVSRDPVLVPPDKNEAPQLLHLGPRGQTEAVLARETALTGKWPTLEREQQVYREFLALYDVKKDLEAKSVGVRQKKKEVSSALDRTARLIITSPSKARSEAETEKAIDELDDRRVYDPRDRAQDKAFKR
binding [3]: no binding
